Data on seven molecules can be found in doi:10.1101/2023.09.21.558844.

Results are given in words; binding and its absence hold for the method and conditions named. Binding seen in cells or lysates may run through a third protein. A yes stands for co-enrichment or nearness to the bait. Other partners may have been found. Where a sequence is shown, tags or fusion partners need not be part of it.

This assay concerns the target T1, Ume6 tagged at the carboxy terminus with TurboID (TurboID-3xMyc) (S. cerevisiae) (UniProt P39001).
T1 sequence: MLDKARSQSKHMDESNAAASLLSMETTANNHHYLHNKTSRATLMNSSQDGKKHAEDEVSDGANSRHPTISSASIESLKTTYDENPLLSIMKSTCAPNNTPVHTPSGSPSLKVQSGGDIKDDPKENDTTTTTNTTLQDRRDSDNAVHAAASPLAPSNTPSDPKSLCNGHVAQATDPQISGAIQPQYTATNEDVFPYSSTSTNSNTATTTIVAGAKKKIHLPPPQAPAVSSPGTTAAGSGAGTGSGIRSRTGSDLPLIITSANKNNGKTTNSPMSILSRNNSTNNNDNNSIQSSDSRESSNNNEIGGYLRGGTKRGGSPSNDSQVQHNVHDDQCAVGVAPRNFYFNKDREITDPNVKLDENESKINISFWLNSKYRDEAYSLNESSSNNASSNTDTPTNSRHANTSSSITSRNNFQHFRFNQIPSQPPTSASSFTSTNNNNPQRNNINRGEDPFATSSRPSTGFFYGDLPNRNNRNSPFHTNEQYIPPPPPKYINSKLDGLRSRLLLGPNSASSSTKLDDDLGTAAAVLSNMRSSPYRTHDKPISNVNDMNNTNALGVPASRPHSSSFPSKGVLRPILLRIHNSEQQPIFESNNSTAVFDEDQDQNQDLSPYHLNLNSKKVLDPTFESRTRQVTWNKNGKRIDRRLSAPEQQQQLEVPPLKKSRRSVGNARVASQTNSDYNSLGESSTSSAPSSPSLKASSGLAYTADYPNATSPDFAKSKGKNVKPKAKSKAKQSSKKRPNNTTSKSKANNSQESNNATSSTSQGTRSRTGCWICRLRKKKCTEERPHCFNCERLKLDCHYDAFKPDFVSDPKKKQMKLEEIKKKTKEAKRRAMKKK
The experiment in a line: proximity labelling.

B1: Tod6 (protein, UniProt P34219 1-525)
chain: MTLPKLSSVSVSSGHVSANSHGFSILSKHPHPNNLVHSHSLSHTNAKSHLPISSTSTKENSTNKEEAESLKKNNPSSWDPSDDIKLRHLKEIKNLGWKEIAHHFPNRTPNACQFRWRRLKSGNLKSNKTAVIDINKLFGVYATGDATPSAGTPSAEEAVKEEAVEDEDITAGSSAIEDSPPDFKPLVKPKYMDRKLITQRSTSTFSDHEPQHTKPRKLFVKPRSFSHSITTNTPNVKTAQQTNLSLYNTTSAKTNKAVNSNDYENIGLVPKIIIRSRRNSFIPSTQIPHSTTKTRKNSHSVISSRRSSFNMMHSRRSSFNSHAPTEPISRRASLVVSPYMSPRRLSTSQSVHYHPQHQYYLNPIASPNCKTDHANDKITHTRTFLDMQKFANKHPWSREDDEVLLNNTKDKQNHLSPLEISIVLPNNRSELEIQQRMDYLKRKGRVSGFHTNEGCKDEEEEDDIDPLHKENGINTPSQQSQNYGMLEAKHDNPKSSELSSMTSANDIRNEQDELPGINSIFKNIF
In the case of B1, the binding result is given as “binds”.

B2: Stb3 (protein, UniProt Q12427 1-513)
chain: MSENQKEVSPPQAISVKSEASSSIFSKPISTSSPAGLAAAQRVTPGKLSTLLLEMGPLAIRHITQTLCLDIPCFKDLSSSKQRRLIMSAMESGDKEKSVVFEKIGWGQWSAKRVDPANFDKELEATNFANAKVKDLISQESQRRKSNNSNSNSGGKVEMPMKVEHNITNIDGATTPPTAVASTTIPVNIKRSKSPLAAANVVYIDENALASEDEDEEFDEDDHHLHYQNKSRNSSNNFGKSSNGDPYSFGRRRSQVVFADSTPENIEHEIIAQKIRPLLRNRRRSSIKPHTPFISKLNTHQDSSYLSPNTTSTTTPSNNNSNSNQAKIDLEKLTATSEPTSRRASRLSVSKESSIRSTLFPNKNYLIVTTNPNSKATSVSTSPKLEEQMNVSSNPIVLSDKEKHRVASQHLNGESSPQLVPHSHHQPHSDTDEEDWESIGAASLRNNSLAPNIDSVASSTNGVVSPKPTNPSFTNSQNGDIEPPLQHDQQKHEQQPRNGEDNSAAFLLMSLKS
As to B2, the binding entry was “binds”.

B3: Tea1, Ty1 enhancer activator I (protein, UniProt P47988 1-759)
chain: MTAPLWPNKNEKNHTVKRALSTDMTSNILSSTNASSNEENSRSSSAANVRSGTGANTLTNGGSTRKRLACTNCRNRRKKCDLGFPCGNCSRLELVCNVNDEDLRKKRYTNKYVKSLESHIAQLETNLKNLVQKIYPDDEQILNRMMVGDVLSALPDSSQVSINYTDQTPSLPIPATRGTFIIENDKVSQPLSSFNQQTEPSTLNSGIFNTQKQNFEESLDDQLLLRRSLTPQGEKKKKPLVKGSLYPEGPVSYKRKHPVKSDSLLPVSSLTAATDPSTFSDGITAGNSVLVNGELKKRISDLKTTVIVRGLNDDNPNSINNDPRILKSLSNFYKWLYPGYFIFVHRESFLYGFFNHSKNNYEDSSYCSVELIYAMCAVGSRLTPDLQEYSEVYYQRSKKTLLQLVFDEQSTARITTVQALFCLAFYELGKGNNQLGWYFSGLAIRVGYDMGFQLDPKVWYVDDNNLQLTQSELEIRSRIYWGCYIADHFICLMLGRTSTLSVSNSTMPESDELPEVNGTEEFRFIGRHVLQISLPLKNLIILSRLVQIFTSKIFIESEDIARKLKYLNTFNSQVYNWRQSLPEFLQWSKTLIENDDVSTDPTISYFWYCYYIVRLTFNKPFIEDSQESETVVIEIIDDLKTLLDNFGKKFGNYTKGNLYQLYSCLLAINCLKKLKEIRSSEQDSWNAQLDFFNHIFYTQLYPAYDLPKKLQEDTELETEQENQMLNQVGNINYTHDFSLSHEIDDLIRELFGVGTPQKL
For B3, the binding result is “binds”.

B4: Spt6 (protein, UniProt P23615 1-1451)
chain: MEETGDSKLVPRDEEEIVNDNDETKAPSEEEEGEDVFDSSEEDEDIDEDEDEARKVQEGFIVNDDDENEDPGTSISKKRRKHKRREREEDDRLSEDDLDLLMENAGVERTKASSSSGKFKRLKRVGDEGNAAESESDNVAASRQDSTSKLEDFFSEDEEEEESGLRNGRNNEYGRDEEDHENRNRTADKGGILDELDDFIEDDEFSDEDDETRQRRIQEKKLLREQSIKQPTQITGLSSDKIDEMYDIFGDGHDYDWALEIENEELENGNDNNEAEEEEIDEETGAIKSTKKKISLQDIYDLEDLKKNLMTEGDMKIRKTDIPERYQELRAGITDYGNMSSEDQELERNWIAEKISVDKNFDANYDLTEFKEAIGNAIKFITKENLEVPFIYAYRRNYISSREKDGFLLTEDDLWDIVSLDIEFHSLVNKKDYVQRFYAELHIDDPIVTEYFKNQNTASIAELNSLQDIYDYLEFKYANEINEMFINHTGKTGKKHLKNSSYEKFKASPLYQAVSDIGISAEDVGENISSQHQIHPPVDHPSSKPVEVIESILNANSGDLQVFTSNTKLAIDTVQKYYSLELSKNTKIREKVRSDFSKYYLADVVLTAKGKKEIQKGSLYEDIKYAINRTPMHFRRDPDVFLKMVEAESLNLLSVKLHMSSQAQYIEHLFQIALETTNTSDIAIEWNNFRKLAFNQAMDKIFQDISQEVKDNLTKNCQKLVAKTVRHKFMTKLDQAPFIPNVRDPKIPKILSLTCGQGRFGADAIIAVYVNRKGDFIRDYKIVDNPFDKTNPEKFEDTLDNIIQSCQPNAIGINGPNPKTQKFYKRLQEVLHKKQIVDSRGHTIPIIYVEDEVAIRYQNSERAAQEFPNKPPLVKYCIALARYMHSPLLEYANLTSEEVRSLSIHPHQNLLSSEQLSWALETAFVDIVNLVSVEVNKATDNNYYASALKYISGFGKRKAIDFLQSLQRLNEPLLARQQLITHNILHKTIFMNSAGFLYISWNEKRQKYEDLEHDQLDSTRIHPEDYHLATKVAADALEYDPDTIAEKEEQGTMSEFIELLREDPDRRAKLESLNLESYAEELEKNTGLRKLNNLNTIVLELLDGFEELRNDFHPLQGDEIFQSLTGESEKTFFKGSIIPVRVERFWHNDIICTTNSEVECVVNAQRHAGAQLRRPANEIYEIGKTYPAKVIYIDYANITAEVSLLDHDVKQQYVPISYSKDPSIWDLKQELEDAEEERKLMMAEARAKRTHRVINHPYYFPFNGRQAEDYLRSKERGEFVIRQSSRGDDHLVITWKLDKDLFQHIDIQELEKENPLALGKVLIVDNQKYNDLDQIIVEYLQNKVRLLNEMTSSEKFKSGTKKDVVKFIEDYSRVNPNKSVYYFSLNHDNPGWFYLMFKINANSKLYTWNVKLTNTGYFLVNYNYPSVIQLCNGFKTLLKSNSSKNRMNNYR
For the molecule B4, the binding entry is listed as “binds”.

B5: Cti6 (protein, UniProt Q08923 1-506)
chain: MESTAIVPKGPVVGSEDMEKAEVIASGSTDIISTTSTATTTAAIGSVQEESVKQEDVPMEGGEGEVEEEEGETRCICGELDTPDDSGFFIQCEQCSSWQHGYCVSITQDNAPDKYWCEQCRPELHQLFTTDTGEARSIYKPVQEKRRQSRRKARSAAASKSHAANEAEKSPRNTSNTDDNVDDIGDEEDEVEDEASAVALAKDGNTRSSRRRRRNSMDDASTDQYSLDPGDSDKKLLDRKRATFMAREEKQYQRMLEKALKESRRTSHQEDPESYENDADIYQGDTDNHNGTTRLQTDVMLTEGKPDSVTNDDMKESLRPSKEQSMEKTNDVEKEASQEKESSTGSAQDTEKTDEPILPLTSISSSEDDSRKASSRGSKRVSKPARKGNRTRRSNTSSDTNQNRRSADIGTDKPVKPRLPPQRTSLNEMRRRVSAILEFISRTQWELSEDQSDREEFVRFVENQHFVEKVDTIYNGYNESLSMMDDLTRELLLWEKKYSNNTNAIQ
On to B5, for which the binding entry was “binds”.

B6: Dep1 (protein, UniProt P31385 1-405)
chain: MSQQTPQESEQTTAKEQDLDQESVLSNIDFNTDLNHNLNLSEYCISSDAGTEKMDSDEEKSLANLPELKYAPKLSSLVKQETLTESLKRPHEDEKEAIDEAKKMKVPGENEDESKEEEKSQELEEAIDSKEKSTDARDEQGDEGDNEEENNEEDNENENEHTAPPALVMPSPIEMEEQRMTALKEITDIEYKFAQLRQKLYDNQLVRLQTELQMCLEGSHPELQVYYSKIAAIRDYKLHRAYQRQKYELSCINTETIATRTFIHQDFHKKVTDLRARLLNRTTQTWYDINKERRDMDIVIPDVNYHVPIKLDNKTLSCITGYASAAQLCYPGEPVAEDLACESIEYRYRANPVDKLEVIVDRMRLNNEISDLEGLRKYFHSFPGAPELNPLRDSEINDDFHQWAQ
For the molecule B6, the binding result was “binds”.

B7: Rxt2 (protein, UniProt P38255 1-430)
chain: MTIRSSMKNNAELESKSVLANESNIISTFTRRIIKEKSGNYQVLKRSLDGKLIYPEATGISSNRGNKLLQRSEVVTRRDLNNSKPMIEQTVFYNGSEHRLLQTNIVTDSRRKRIKFTPDINVEPVLVGDENDIDGSEKEDENITDEYYGEEDDDDLSKLVNVKEILTPILSLGDIINHKTISRTFSSPILKNLALQIILMIEKEQMSVVRYSQFLEVFLGDHPEPIYESNLNLPSYNHNLTLPEDRGASDEDDINNKNNINEVNSNSLSTEAGHINNGMEEFGEEDPFFALPRLEQSNALLSLLPSSSGSASISTLTAAEQQQLNEEIESARQLSQIALQRNKEFIRNLQKIRKSVIKANRIRGRILNWSREYLGISDDDITIPVALRVVKRGLISATTNKTTNFEEEIENTMEDGVVDDNEPDEEANRA
In the case of B7, the binding entry is given as “binds”.
